Measurements reported in PubChem BioAssay AID504774 (Drosophila RNAi Screening Center, 2011)

Purpose: 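Genes required for cells to withstand methyl methanesulphonate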 (primary screen)
Cell system: Drosophila Kc167 cells
Reagents: long dsRNA against Drosophila genes, about 0.25 µg dsRNA per well
Timing: about 6 days: 3 days knock-down, then 3 days with or without MMS
Conditions: methyl methanesulphonate 0.004% (w/v) for 3 days after knock-down
Measurement: 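Viability in wells given MMS, read as ATP luminescence, normalised by quantiles plate by plate and averaged across replicates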
Direction: mean viability with MMS and viability with MMS: higher = more surviving cells after MMS
The deposit covers about 23,000 reagents; shown is a random part of those with a known target gene and a result. 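Values are quantile-normalised luminescence on an arbitrary scale; higher means more cells surviving MMS.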 Reagents against one gene are numbered here. No sequences are given here.

gene knocked down,dsRNA no.,mean viability with MMS,"viability with MMS, replicate 1","viability with MMS, replicate 2"
Sodh1 (Sorbitol dehydrogenase 1),1,3.70e6,4.19e6,4.21e6
Nmdar1 (NMDA receptor 1),1,3.84e6,4.17e6,4.36e6
Nmdar1 (NMDA receptor 1),2,3.77e6,4.30e6,4.19e6
Zwilch,1,3.41e6,3.78e6,3.90e6
CG31229,1,3.39e6,3.74e6,3.90e6
CG14115,1,3.65e6,4.04e6,4.19e6
Galphas (G protein alpha subunit s),1,3.60e6,3.95e6,4.19e6
Rpt1 (Regulatory particle triple-A ATPase 1),1,2.84e6,3.52e6,3.48e6
CG13135,1,3.53e6,4.03e6,3.99e6
CG34050 (retired record),1,2.81e6,3.54e6,3.54e6
net,1,3.55e6,3.98e6,4.08e6
mbo (members only),1,3.59e6,4.07e6,4.11e6
Idgf1 (Imaginal disc growth factor 1),1,3.64e6,3.97e6,4.32e6
Sema5c (Semaphorin 5c),1,3.54e6,3.94e6,4.09e6
CG13707,1,3.63e6,4.07e6,4.17e6
CG4839,1,3.64e6,4.27e6,4.04e6
CG4839,2,3.62e6,3.98e6,4.23e6
Srp14 (Signal recognition particle 14),1,3.64e6,4.12e6,4.14e6
Dp (DP transcription factor),1,3.24e6,3.75e6,3.66e6
metro (menage a trois),1,3.52e6,4.02e6,3.96e6
metro (menage a trois),2,3.45e6,3.86e6,3.88e6
CG17490,1,3.55e6,4.03e6,4.01e6
CG17490,2,3.54e6,4.09e6,3.93e6
eEF1beta (eukaryotic translation elongation factor 1 beta),1,3.56e6,4.06e6,4.02e6
Poxn (Pox neuro),1,3.47e6,4.04e6,3.89e6
Poxn (Pox neuro),2,3.57e6,4.21e6,3.88e6
rumi,1,3.50e6,3.94e6,3.99e6
CG31781 (retired record),1,3.56e6,3.89e6,4.21e6
CG31781 (retired record),2,3.52e6,3.97e6,4.01e6

Part of the list above, reduced to “viability with MMS, replicate 2”:
CG34050 (retired record)	3.54e6
net	4.08e6
mbo (members only)	4.11e6
Idgf1 (Imaginal disc growth factor 1)	4.32e6
